# “And” between values parts separate entries of the source, which are not always exact repeats. Identical values can stand only once. The whole screen tested about 300,000 compounds, of which about 5,400 (1.8%) were called active. The shares of active, inactive and inconclusive entries below differ from those in the screen. Calls come from the whole dose curve; tested in HEK293 cells. Where the call is inconclusive, the potency comes from a doubtful curve fit.
# Assay: qHTS for inhibitors of binding or entry into cells for Marburg Virus
# Conditions: Marburg virus pseudotyped entry inhibition, cell reporter; activity change, negative = inhibition: at 37.8 µM (top of the series) unless noted
# % is set by controls: 0 for no effect and ±100 for the full control effect; potency is the fitted concentration of half-maximal effect.
SMILES,Potency,"activity change, negative = inhibition"
COC(=O)CCN1CCc2cc(N=Nc3ccc([N+](=O)[O-])cc3)ccc21,"inconclusive: 12.6 µM [activator, partial curve, poor fit]",–
O=C(NC1CCCCC1)C1CC(=O)N(CCc2ccc(F)cc2)C1 (centres undefined),inactive,–
CCCCNC(=O)CCn1nc(-c2ccc(Cl)cc2)ccc1=O,"inconclusive: 6.31 µM [activator, single point]",–
O=C(O)c1cc2nc3c(c(C(F)(F)F)n2n1)CCc1ccccc1-3,inactive,–
COc1cc(C2c3c(oc4cc(C)c(C)cc4c3=O)C(=O)N2CCCN2CCOCC2)ccc1O (centres undefined),inactive,–
Cn1nnnc1SCC(=O)c1cccs1,"inconclusive: 0.92 µM [activator, partial curve]",–
COc1cccc(C(=O)Nc2ccc(NC(=O)c3ccco3)nc2)c1,"inconclusive: 0.708 µM [activator, full curve, poor fit]",–
CCCCCN1CSC(=S)N(Cc2ccccc2)C1,inactive,–
COc1cc(SC)ccc1C(=O)NC(C)C,"inconclusive: 3.55 µM [inhibitor, single point]",–
Cc1ccc(-n2nc(C)cc2NC(=O)COc2cc(C)cc3oc(=O)c4c(c23)CCC4)cc1,"inconclusive: 25.9 µM [inhibitor, partial curve]",–
CCOc1ccccc1Oc1cn[nH]c1-c1ccc(OC)cc1O,"inconclusive: 12.6 µM [inhibitor, partial curve]",–
Cc1cccc(NC(=O)c2ccc(S(=O)(=O)N(C)c3ccccc3)cc2)n1,"inconclusive: 20 µM [inhibitor, single point]",–
Cn1c(NCCCCO)nc2c1c(=O)n(Cc1ccc(Cl)cc1)c(=O)n2C,"inconclusive: 3.98 µM [inhibitor, single point]",–
COC(=O)[C@@]1(Cc2ccc(F)cc2)[C@H]2c3cc(C(=O)N(C)C)[nH]c3C[C@H]2CN1C(=O)c1ccccc1,inactive,–
CCn1cnc2sc(C(=O)Oc3cccc(C)c3)c(C)c2c1=O,"inconclusive: 32.6 µM [inhibitor, single point]",–
CCOc1cc(/C=C(\C#N)c2[nH]nc(N)c2C#N)ccc1O,"inconclusive: 2.82 µM [inhibitor, full curve, poor fit]",–
COc1ccc(NC(=O)Cn2c(=O)n(CCCC(=O)NCc3ccccc3OC)c(=O)c3ccccc32)cc1Cl,inactive,–
COc1cccc(/C=N/NC(=O)c2cccs2)c1,"inconclusive: 2.82 µM [activator, partial curve, poor fit]",–
O=C(Nc1ccccn1)c1ccc(C(=O)c2ccccc2)cc1,"inconclusive: 31.6 µM [inhibitor, single point]",–
COc1ccc(CNC(=O)/C=C/c2ccco2)cc1OC,inactive,–
Cc1cc(CNC(=O)COC(=O)Cn2[nH]c(=O)c3ccccc3c2=O)cc(C)c1O,inactive,–
COc1ccc(CCNC(=O)C(=O)NCCOc2ccccc2)cc1OC,"inconclusive: 15.8 µM [inhibitor, single point]",–

SMILES,Potency,"activity change, negative = inhibition"
CCCCCCCN1N=C(C)C(C(=O)c2ccccc2)C1=O (centres undefined),"inconclusive: 1.12 µM [activator, single point]",–
CCN=c1scc(-c2ccc(F)cc2)n1/N=C/c1ccccn1,"inconclusive: 11.2 µM [inhibitor, partial curve, poor fit]",–
Cc1ccc(NC(=O)Nc2ccc(Cl)cc2)c(Br)c1,"inconclusive: 2.82 µM [activator, partial curve, poor fit]",–
Cc1ccc(C2C3=C(CC(C)(C)CC3=O)Nc3n[nH]c(C)c32)cc1 (centres undefined),"inconclusive: 10 µM [inhibitor, partial curve, poor fit]",–
CC(C)c1ccc(N(CC(=O)NCc2cccnc2)S(=O)(=O)c2ccccc2)cc1,"inconclusive: 20 µM [inhibitor, partial curve, poor fit]",–
Cc1nc(-c2noc(-c3ccc(Cl)cc3)n2)c(C(F)(F)F)o1,"inconclusive: 0.1 µM [inhibitor, full curve, poor fit]",–
COc1ccc(/C(N)=N/OC(=O)c2cccc([N+](=O)[O-])c2)cc1,"inconclusive: 2.82 µM [activator, full curve, poor fit]",–
Cc1cnn(-c2cc(Oc3ccccc3)ncn2)c1,–,inconclusive: 44.9% [activator] [at 46.1 µM]
CCC(Oc1ccccc1)C(=O)Nc1ccc(O)c(-c2nc3cc(C)ccc3o2)c1 (centres undefined),inactive,–
CCC(C(=O)Nc1ccccc1C(=O)OC)n1c(C)c2cnn(-c3ccccc3)c(=O)c2c1C (centres undefined),"inconclusive: 35.5 µM [inhibitor, single point]",–
CC(C)(C)c1csc(NC(=O)c2cccs2)n1,"inconclusive: 6.31 µM [activator, single point]",–
Cc1cc(C)nc(N/N=C/c2ccccc2OCc2cccc(Br)c2)n1,"inconclusive: 3.16 µM [inhibitor, single point]",–
NC(=O)CSc1oc(-c2ccco2)nc1S(=O)(=O)c1ccc(Br)cc1,inactive,–
O=C(c1ccco1)N(CCO)Cc1cc2cc3c(cc2[nH]c1=O)OCO3,"inconclusive: 2.51 µM [activator, partial curve, poor fit]",–
Cn1c(CN2CCCCC2)nc2cc(NC(=O)c3cccc(Br)c3)ccc21,"inconclusive: 13 µM [inhibitor, partial curve, poor fit] and inconclusive: 22.4 µM [inhibitor, single point]",–
CCCCCN(C(=O)CCC(=O)OCc1ccc(C(C)(C)C)cc1)c1c(N)n(CCCC)c(=O)[nH]c1=O,"inconclusive: 20 µM [inhibitor, single point]",–
Nc1ccc2nc(-c3cccnc3)[nH]c2c1,"inconclusive: 11.2 µM [activator, partial curve, poor fit]",–
CCc1nnc(NC(=O)c2nc(S(=O)(=O)Cc3cccc(C)c3)ncc2Cl)s1,"inconclusive: 22.4 µM [inhibitor, single point] and inconclusive: 22.4 µM [inhibitor, partial curve, poor fit]",–
O=C1C(=Cc2cccn2-c2ccccc2)C(=O)c2ccccc21,"inconclusive: 11.2 µM [inhibitor, partial curve, poor fit]",–
O=C(C1CN(C(=O)c2cc3cc(Cl)ccc3o2)c2ccccc2O1)N1CCCCC1 (centres undefined),"inconclusive: 35.5 µM [inhibitor, single point]",–
COCCNC(=O)C(C)OC(=O)c1cc2sccc2n1C (centres undefined),"inconclusive: 2.51 µM [inhibitor, partial curve, poor fit]",–
CC(=O)/C(=N\Nc1ccccc1)Sc1nncn1C,"inconclusive: 6.31 µM [activator, full curve, poor fit]",–

SMILES,Potency,"activity change, negative = inhibition"
O=C(Nc1ccc(C(F)(F)F)cc1[N+](=O)[O-])O[C@H]1[C@H](Cc2ccccc2)NS(=O)(=O)[C@H]2C[C@@H]3C=C[C@]12O3,inactive,–
CC1CCC2C(C1)c1sc(=O)[nH]c1SC2(C)C (centres undefined),"inconclusive: 11.6 µM [inhibitor, partial curve, poor fit]",–
Cc1ccc2nc(Cl)c(/C=C/C(=O)c3ccco3)cc2c1,inactive,–
N#CC(C#N)=Cc1cn(-c2ncc(C(F)(F)F)cc2Cl)c2ccccc12,inactive,–
CN(C)c1nc(N)nc(CSc2ccccn2)n1,"inconclusive: 29.1 µM [activator, single point]",–
Cn1c(SSc2ccc(-c3cccnc3)n2C)ccc1-c1cccnc1,active: 12.6 µM,–
Cc1cccc(OCc2cc(=O)n3c(-c4ccccc4)csc3n2)c1C,"inconclusive: 35.5 µM [activator, single point]",–
O=C(c1cccn2c(=O)c3cc(Br)ccc3nc12)N1CCC2(CC1)OCCO2,"inconclusive: 0.259 µM [activator, single point]",–
COc1cc(-c2nc(CN3CCN(C(=O)c4ccco4)CC3)c(C)o2)ccc1F,"inconclusive: 3.55 µM [inhibitor, single point]",–
O=C(Nc1cc(Sc2ccccn2)cc([N+](=O)[O-])c1)c1ccc([N+](=O)[O-])cc1,"inconclusive: 15.8 µM [inhibitor, single point]",–
Cc1ccc(NC(=O)CN2CCC3(O)CCCCC3C2c2ccc3c(c2)OCO3)c(C)c1 (centres undefined),"inconclusive: 25.9 µM [inhibitor, single point]",–
COc1ccc(N=C(N)SCc2ccccn2)cc1,inactive,–
Cc1c(/C=N/n2cnnc2)c2ccccc2n1CCOc1ccc(Cl)cc1,"inconclusive: 32.6 µM [inhibitor, single point]",–
COc1ccc(NC(=O)CSc2c3c(nc4cc(Cl)ccc24)CCCC3)cc1OC,"inconclusive: 20 µM [inhibitor, partial curve, poor fit]",–
COc1cc(/C=N/NC(=O)c2ccc(CN3c4cccc5cccc(c45)S3(=O)=O)cc2)cc(OC)c1O,"inconclusive: 12.6 µM [inhibitor, single point]",–
O=C1CN(C(=O)Cc2ccc(F)cc2)C(c2ccccc2)c2cc(Br)ccc2N1 (centres undefined),"inconclusive: 3.16 µM [activator, single point]",–
CN1CCN(C(=S)Nc2ccc(Cl)c(Cl)c2)CC1,"inconclusive: 22.4 µM [inhibitor, partial curve, poor fit]",–
COc1ccc(C(=O)NCCC2=CCCCC2)cc1[N+](=O)[O-],inactive,–
CC1(C)C=C2C(=NN(c3ccccc3)C(N)=C2C#N)CO1,"inconclusive: 5.62 µM [inhibitor, single point]",–
Cc1cc(S(=O)(=O)Nc2cccc(Cl)c2)c(C)s1,"inconclusive: 3.98 µM [inhibitor, full curve, poor fit]",–

# From PubChem BioAssay AID540276 (National Center for Advancing Translational Sciences (NCATS), 2011)
